In article doi:10.1101/176586:
These are yes or no findings as the source states them, for the method shown.

The chains behind the UniProt entries cited, without tags or fusion partners. Where a name states a change or a piece, a line headed by the entry shows the natural chain unless it says otherwise. A line that says so, or that is headed by a name, gives the form on record, which may keep a tag or linker.
WT Vinculin (2-1066) (P18206-2, form named): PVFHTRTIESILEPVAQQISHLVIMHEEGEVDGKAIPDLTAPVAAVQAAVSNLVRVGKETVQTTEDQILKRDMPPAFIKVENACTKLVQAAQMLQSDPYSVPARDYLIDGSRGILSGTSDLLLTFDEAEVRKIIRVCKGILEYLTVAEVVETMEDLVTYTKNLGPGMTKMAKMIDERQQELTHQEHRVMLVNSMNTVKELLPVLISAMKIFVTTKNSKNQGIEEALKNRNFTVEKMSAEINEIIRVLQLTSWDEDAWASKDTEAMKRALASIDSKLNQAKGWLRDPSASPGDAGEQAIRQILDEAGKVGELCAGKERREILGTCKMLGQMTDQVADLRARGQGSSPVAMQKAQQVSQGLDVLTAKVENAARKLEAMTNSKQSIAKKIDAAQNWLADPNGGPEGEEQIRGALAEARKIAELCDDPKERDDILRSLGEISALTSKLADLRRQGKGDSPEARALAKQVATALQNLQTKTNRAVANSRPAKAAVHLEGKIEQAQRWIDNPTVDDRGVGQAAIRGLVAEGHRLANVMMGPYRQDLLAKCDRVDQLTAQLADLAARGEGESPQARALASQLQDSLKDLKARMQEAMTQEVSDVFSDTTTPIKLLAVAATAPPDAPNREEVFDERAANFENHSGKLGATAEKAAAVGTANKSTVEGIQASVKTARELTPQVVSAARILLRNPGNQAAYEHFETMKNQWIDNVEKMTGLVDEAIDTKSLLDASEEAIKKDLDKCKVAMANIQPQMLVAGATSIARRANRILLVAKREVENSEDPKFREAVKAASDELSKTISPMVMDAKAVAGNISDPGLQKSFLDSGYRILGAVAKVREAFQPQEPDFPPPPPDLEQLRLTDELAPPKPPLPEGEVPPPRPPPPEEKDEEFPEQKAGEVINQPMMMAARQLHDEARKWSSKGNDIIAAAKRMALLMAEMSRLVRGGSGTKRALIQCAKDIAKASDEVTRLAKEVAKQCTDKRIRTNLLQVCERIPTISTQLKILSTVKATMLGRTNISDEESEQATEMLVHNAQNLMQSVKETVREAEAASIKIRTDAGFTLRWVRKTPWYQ

Molecular target: WT Vinculin (2-1066) (human) (UniProt P18206)
Assay: native MS

binding: no binding (tested: 10 μM)
Substance: WT Vinculin (2-1066) (from UniProt P18206-2 2-1066)
